Some of the results follow.
Assays:
Assay in all cases: log2 fold change, soluble protein after heating vs DMSO (PISA); higher = thermal stabilisation; K562 cells, 10 uM, 30 min; active = over 0.2 and 3.5 SD of the protein, either way, in both replicates (recomputed)
[1] = compound: CS(=O)(=O)c1ccc(-c2cnc(N)c(C(=O)Nc3ccccc3)n2)cc1
Summary of the method: (§1)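 Thermal stability values are relative to control samples and come from duplicates. They are expressed as log2 fold changes. For measurement, K562 cells (2×10^6 cells/mL) received 10 μM compound for 30 min, and aliquots were heated for 3 min over 48°C-58°C, pooled, and extracted at 4°C in PBS with 0.5% NP-40. Soluble protein, the supernatant after 21,000xg for 90 min, was quantified by TMTpro 16plex LC-MS/MS with equalised channel sums.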

Protein sequences, listed by entry. Tags and fused reporters are not part of them. Lines headed by an entry give the natural chain unless they say otherwise; changes in a name come on top.
UniProt O15084: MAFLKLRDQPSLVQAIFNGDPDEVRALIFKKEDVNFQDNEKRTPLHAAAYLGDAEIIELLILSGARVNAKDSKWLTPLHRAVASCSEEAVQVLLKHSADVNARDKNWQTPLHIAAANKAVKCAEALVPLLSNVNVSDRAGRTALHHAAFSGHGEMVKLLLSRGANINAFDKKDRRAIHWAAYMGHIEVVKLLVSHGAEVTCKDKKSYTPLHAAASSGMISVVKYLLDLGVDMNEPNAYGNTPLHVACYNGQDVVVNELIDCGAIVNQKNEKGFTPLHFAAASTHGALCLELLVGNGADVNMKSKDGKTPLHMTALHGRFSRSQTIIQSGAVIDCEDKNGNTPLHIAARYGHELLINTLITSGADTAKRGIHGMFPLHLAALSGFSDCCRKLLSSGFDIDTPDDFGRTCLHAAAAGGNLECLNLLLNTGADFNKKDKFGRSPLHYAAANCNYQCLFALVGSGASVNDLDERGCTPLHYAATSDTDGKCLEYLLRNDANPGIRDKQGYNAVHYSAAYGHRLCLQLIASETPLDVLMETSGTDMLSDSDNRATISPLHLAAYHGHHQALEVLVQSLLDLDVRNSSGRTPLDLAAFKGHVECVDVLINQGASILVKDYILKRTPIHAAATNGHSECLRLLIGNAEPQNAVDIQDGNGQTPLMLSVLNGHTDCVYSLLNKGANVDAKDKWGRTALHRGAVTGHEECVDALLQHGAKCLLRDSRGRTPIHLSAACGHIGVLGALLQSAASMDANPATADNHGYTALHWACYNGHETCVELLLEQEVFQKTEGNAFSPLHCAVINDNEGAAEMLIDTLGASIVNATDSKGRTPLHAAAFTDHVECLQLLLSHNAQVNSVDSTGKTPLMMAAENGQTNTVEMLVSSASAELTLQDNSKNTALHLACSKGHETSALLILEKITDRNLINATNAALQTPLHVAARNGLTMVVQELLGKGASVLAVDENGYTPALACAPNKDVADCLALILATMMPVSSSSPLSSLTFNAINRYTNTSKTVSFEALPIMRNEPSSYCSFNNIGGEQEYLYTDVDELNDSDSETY
UniProt Q9BQD7: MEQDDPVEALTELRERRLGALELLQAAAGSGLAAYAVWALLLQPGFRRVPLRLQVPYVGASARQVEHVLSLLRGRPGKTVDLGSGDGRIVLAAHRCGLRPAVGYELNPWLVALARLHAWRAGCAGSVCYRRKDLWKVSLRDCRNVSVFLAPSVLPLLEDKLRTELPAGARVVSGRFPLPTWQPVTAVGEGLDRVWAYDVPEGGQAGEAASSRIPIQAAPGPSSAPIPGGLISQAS
UniProt P84085: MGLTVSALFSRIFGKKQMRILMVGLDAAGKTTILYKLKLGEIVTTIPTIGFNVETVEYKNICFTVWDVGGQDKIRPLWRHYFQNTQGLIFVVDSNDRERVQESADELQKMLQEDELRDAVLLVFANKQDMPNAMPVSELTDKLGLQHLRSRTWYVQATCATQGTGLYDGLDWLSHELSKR
UniProt P07355, whole entry, looked up: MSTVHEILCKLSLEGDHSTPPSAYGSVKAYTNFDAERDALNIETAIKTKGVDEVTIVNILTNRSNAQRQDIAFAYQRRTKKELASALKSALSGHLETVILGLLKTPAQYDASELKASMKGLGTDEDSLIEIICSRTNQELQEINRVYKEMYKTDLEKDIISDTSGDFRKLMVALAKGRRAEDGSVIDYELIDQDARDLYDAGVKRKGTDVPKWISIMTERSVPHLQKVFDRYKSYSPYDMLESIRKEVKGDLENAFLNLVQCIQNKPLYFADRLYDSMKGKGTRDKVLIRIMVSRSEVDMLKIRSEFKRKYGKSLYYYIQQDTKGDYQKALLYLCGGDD
UniProt P04083: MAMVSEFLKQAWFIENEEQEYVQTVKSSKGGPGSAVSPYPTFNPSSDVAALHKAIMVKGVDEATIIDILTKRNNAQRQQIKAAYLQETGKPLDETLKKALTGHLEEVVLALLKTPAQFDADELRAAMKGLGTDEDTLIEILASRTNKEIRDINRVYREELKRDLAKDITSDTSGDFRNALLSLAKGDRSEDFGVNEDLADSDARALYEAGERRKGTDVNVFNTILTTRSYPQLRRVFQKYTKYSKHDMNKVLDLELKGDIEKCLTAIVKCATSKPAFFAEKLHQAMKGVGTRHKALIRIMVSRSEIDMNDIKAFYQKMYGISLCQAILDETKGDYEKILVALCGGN
UniProt Q92974: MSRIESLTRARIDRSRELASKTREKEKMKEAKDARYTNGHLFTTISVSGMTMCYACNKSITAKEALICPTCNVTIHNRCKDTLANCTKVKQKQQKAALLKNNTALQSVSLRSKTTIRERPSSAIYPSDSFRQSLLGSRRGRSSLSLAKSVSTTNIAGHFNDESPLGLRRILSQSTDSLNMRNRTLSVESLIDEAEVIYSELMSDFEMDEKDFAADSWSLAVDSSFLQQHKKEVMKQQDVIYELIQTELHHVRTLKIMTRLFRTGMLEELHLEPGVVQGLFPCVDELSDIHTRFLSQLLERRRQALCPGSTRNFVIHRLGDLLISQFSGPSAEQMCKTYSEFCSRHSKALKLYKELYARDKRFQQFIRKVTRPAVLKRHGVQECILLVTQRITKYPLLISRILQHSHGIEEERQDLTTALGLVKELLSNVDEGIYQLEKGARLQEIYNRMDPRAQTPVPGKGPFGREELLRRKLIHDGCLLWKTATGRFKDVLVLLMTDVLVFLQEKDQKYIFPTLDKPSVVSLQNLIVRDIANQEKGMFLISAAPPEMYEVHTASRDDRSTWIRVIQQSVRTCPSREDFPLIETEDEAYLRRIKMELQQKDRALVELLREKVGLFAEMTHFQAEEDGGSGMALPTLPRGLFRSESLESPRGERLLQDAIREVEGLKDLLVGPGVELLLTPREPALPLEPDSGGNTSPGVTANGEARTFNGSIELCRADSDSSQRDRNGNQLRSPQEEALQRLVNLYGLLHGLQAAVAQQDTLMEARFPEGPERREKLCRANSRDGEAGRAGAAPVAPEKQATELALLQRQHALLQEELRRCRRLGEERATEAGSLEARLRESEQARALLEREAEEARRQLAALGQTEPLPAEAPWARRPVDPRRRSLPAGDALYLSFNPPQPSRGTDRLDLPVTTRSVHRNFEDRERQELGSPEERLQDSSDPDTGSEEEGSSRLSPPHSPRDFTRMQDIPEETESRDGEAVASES
UniProt Q9UJX5, whole entry, looked up: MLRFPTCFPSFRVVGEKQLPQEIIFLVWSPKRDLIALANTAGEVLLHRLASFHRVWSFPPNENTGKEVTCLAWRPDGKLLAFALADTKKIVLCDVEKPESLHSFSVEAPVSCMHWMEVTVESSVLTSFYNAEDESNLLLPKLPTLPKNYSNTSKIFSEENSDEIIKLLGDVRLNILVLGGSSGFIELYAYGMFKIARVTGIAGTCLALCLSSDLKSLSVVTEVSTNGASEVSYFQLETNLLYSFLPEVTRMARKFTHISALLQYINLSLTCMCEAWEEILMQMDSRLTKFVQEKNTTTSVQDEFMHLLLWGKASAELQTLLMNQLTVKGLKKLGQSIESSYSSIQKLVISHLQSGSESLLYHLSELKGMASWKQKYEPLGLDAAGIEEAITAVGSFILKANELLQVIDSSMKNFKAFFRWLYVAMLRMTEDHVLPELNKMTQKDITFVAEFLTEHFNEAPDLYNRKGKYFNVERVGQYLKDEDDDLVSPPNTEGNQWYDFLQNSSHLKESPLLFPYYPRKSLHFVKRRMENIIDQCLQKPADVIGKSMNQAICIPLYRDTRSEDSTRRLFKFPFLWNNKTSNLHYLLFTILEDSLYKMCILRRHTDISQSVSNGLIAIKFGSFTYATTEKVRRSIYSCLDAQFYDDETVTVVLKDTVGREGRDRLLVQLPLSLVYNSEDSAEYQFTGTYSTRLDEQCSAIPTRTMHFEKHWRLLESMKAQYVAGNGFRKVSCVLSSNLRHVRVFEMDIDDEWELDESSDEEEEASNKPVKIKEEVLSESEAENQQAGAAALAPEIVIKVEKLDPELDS
UniProt O43747: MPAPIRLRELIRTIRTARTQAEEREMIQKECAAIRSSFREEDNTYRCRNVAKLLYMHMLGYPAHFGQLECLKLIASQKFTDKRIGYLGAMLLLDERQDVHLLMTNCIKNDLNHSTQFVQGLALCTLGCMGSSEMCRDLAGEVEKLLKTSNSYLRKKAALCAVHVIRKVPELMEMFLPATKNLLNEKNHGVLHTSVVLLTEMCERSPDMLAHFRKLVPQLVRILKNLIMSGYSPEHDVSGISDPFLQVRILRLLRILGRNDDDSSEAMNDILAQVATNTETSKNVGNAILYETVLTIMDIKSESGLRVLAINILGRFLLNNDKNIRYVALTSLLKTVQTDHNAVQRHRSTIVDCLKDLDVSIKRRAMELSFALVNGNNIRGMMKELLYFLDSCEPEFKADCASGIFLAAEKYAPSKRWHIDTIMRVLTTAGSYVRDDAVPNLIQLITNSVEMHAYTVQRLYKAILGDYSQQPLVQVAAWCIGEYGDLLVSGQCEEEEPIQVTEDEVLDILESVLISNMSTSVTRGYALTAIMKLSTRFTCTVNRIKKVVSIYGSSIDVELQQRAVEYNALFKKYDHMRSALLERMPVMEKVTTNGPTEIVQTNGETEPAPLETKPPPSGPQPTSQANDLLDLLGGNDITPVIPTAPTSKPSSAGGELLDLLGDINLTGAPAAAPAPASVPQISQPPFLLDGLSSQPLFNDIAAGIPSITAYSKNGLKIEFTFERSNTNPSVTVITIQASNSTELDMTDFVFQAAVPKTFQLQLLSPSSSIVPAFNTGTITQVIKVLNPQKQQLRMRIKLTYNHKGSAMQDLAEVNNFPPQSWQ
UniProt Q9HDC9: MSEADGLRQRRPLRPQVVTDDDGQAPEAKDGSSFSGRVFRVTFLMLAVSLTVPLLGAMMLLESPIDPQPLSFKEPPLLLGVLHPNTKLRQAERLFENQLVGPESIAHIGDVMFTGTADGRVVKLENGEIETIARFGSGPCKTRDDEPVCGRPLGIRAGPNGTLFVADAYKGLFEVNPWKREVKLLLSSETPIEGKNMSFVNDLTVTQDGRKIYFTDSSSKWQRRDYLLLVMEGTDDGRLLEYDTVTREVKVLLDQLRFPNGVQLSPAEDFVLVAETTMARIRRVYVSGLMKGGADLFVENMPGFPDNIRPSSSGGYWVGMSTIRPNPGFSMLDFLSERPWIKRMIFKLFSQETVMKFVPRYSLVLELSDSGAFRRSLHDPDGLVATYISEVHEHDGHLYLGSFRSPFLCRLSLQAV
UniProt Q6NXT1: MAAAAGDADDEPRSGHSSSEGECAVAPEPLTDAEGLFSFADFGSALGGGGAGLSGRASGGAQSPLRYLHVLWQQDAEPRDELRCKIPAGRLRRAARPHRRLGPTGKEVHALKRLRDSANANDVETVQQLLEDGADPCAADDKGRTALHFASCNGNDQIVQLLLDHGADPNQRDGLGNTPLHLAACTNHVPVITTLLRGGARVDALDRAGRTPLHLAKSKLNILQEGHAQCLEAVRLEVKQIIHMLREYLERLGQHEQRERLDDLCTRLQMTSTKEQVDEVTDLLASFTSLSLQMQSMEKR
UniProt Q92888: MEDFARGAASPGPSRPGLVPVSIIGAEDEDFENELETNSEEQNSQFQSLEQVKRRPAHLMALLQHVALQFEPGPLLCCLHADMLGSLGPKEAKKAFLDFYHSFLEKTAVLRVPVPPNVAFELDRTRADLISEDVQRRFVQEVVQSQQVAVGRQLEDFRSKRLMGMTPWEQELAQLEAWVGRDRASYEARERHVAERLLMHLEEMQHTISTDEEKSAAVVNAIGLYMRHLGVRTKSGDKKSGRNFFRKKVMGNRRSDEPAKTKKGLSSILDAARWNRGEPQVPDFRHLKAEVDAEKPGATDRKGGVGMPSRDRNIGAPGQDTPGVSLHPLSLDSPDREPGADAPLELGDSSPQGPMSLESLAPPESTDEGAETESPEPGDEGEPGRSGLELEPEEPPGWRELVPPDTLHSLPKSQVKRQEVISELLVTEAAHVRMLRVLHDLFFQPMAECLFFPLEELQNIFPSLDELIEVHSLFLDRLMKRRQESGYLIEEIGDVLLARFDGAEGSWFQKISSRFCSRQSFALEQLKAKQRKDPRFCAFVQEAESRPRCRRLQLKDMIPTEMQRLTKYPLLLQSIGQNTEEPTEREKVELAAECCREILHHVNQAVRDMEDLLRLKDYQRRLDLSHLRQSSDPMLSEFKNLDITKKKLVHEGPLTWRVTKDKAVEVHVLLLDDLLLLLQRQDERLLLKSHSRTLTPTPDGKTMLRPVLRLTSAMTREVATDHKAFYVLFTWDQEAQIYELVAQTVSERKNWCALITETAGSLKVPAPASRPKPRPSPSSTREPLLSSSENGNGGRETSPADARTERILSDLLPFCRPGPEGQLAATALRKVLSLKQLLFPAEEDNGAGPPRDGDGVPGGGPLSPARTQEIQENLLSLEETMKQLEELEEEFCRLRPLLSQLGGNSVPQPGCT

crizotinib = compound: C[C@@H](Oc1cc(-c2cnn(C3CCNCC3)c2)cnc1N)c1c(Cl)ccc(F)c1Cl [crizotinib]
Summary of the method: as §1

[2] = compound: C[C@@H]1COCCN1C2=NC(=NC(=C2)C3(CC3)S(=O)(=O)C)C4=C5C=CNC5=CC=C4
Summary of the method: as §1

[3] = compound: C[C@H](C1=CC=C(C=C1)C(=O)NC2=C3C=CNC3=NC=C2)N
Summary of the method: as §1

duvelisib = compound: C[C@H](Nc1ncnc2nc[nH]c12)c1cc2cccc(Cl)c2c(=O)n1-c1ccccc1 [duvelisib]
Summary of the method: as §1

gandotinib = compound: Cc1cc(Nc2cc(CN3CCOCC3)c3nc(C)c(Cc4ccc(Cl)cc4F)n3n2)n[nH]1 [gandotinib]
Summary of the method: as §1

tozasertib = compound: Cc1cc(Nc2cc(N3CCN(C)CC3)nc(Sc3ccc(NC(=O)C4CC4)cc3)n2)n[nH]1 [tozasertib]
Summary of the method: as §1

[4] = compound: Cc1cc(SCc2sc(-c3ccc(C(F)(F)F)cc3)nc2C)ccc1OCC(=O)O
Summary of the method: as §1

doramapimod = compound: Cc1ccc(-n2nc(C(C)(C)C)cc2NC(=O)Nc2ccc(OCCN3CCOCC3)c3ccccc23)cc1 [doramapimod]
Summary of the method: as §1

ispinesib = compound: Cc1ccc(C(=O)N(CCCN)[C@@H](c2nc3cc(Cl)ccc3c(=O)n2Cc2ccccc2)C(C)C)cc1 [ispinesib]
Summary of the method: as §1

bafetinib = compound: Cc1ccc(NC(=O)c2ccc(CN3CC[C@H](N(C)C)C3)c(C(F)(F)F)c2)cc1Nc1nccc(-c2cncnc2)n1 [bafetinib]
Summary of the method: as §1

[5] = compound: Cc1cccc(CC(=O)N2CCc3c2ccc(-c2cn(C)c4ncnc(N)c24)c3F)n1
Summary of the method: as §1

nilotinib = compound: Cc1cn(-c2cc(NC(=O)c3ccc(C)c(Nc4nccc(-c5cccnc5)n4)c3)cc(C(F)(F)F)c2)cn1 [nilotinib]
Summary of the method: as §1

[6] = compound: Cc1nc(Nc2n[nH]c3c2CN(C(=O)N[C@H](CN(C)C)c2ccccc2)C3(C)C)c2sccc2n1
Summary of the method: as §1

dasatinib = compound: Cc1nc(Nc2ncc(C(=O)Nc3c(C)cccc3Cl)s2)cc(N2CCN(CCO)CC2)n1 [dasatinib]
Summary of the method: as §1

[7] = compound: Cc1ncc(-c2ccnc(Nc3ccc(S(C)(=O)=O)cc3)n2)n1C(C)C
Summary of the method: as §1

[8] = compound: Cn1cc(-c2ccc3c(c2)CCN3C(=O)Cc2cccc(C(F)(F)F)c2)c2c(N)ncnc21
Summary of the method: as §1

[9] = compound: Cn1cc(-c2ccc3nnc(C(F)(F)c4ccc5ncccc5c4)n3n2)cn1
Summary of the method: as §1

tipifarnib = compound: Cn1cncc1[C@@](N)(c1ccc(Cl)cc1)c1ccc2c(c1)c(-c1cccc(Cl)c1)cc(=O)n2C [tipifarnib]
Summary of the method: as §1

mubritinib = compound: FC(F)(F)c1ccc(/C=C/c2nc(COc3ccc(CCCCn4ccnn4)cc3)co2)cc1 [mubritinib]
Summary of the method: as §1

Measured: log2 fold change

ANP32B (UniProt Q92688)
inactive: [1] 0.02 | crizotinib 0.123 | [2] 0.056 | [3] -0.044 | duvelisib 0.02 | gandotinib -0.054 | tozasertib 0.021 | [4] 0.016 | doramapimod -0.036 | ispinesib 0.054 | bafetinib -0.019 | [5] 0.005 | nilotinib -0.022 | [6] -0.025 | dasatinib -0.005 | [7] -0.075 | [8] 0.004 | [9] 0.01 | tipifarnib -0.009 | mubritinib 0.006

ARHGDIA (UniProt P52565)
inactive: [1] 0.013 | crizotinib 0.05 | [2] 0.038 | [3] -0.117 | duvelisib 0.034 | gandotinib -0.065 | tozasertib -0.007 | [4] -0.018 | doramapimod 0.01 | ispinesib 0.062 | bafetinib 0.019 | [5] 0.013 | nilotinib -0.025 | [6] -0.023 | dasatinib 0 | [7] -0.004 | [8] 0.032 | [9] -0.011 | tipifarnib -0.095 | mubritinib 0.086

ANKRD28 (UniProt O15084)
inactive: [1] -0.016 | crizotinib -0.028 | [2] 0.024 | [3] -0.001 | duvelisib 0.035 | gandotinib -0.064 | tozasertib 0.016 | [4] 0.018 | doramapimod 0.012 | ispinesib 0.025 | bafetinib -0.029 | [5] 0.017 | nilotinib -0.022 | [6] -0.076 | dasatinib -0.045 | [7] -0.011 | [8] -0.002 | [9] -0.072 | tipifarnib 0.004 | mubritinib 0.019

ANTKMT (UniProt Q9BQD7)
inactive: [1] 0.132 | crizotinib -0.28 | [2] 0.179 | [3] -0.052 | duvelisib -0.023 | gandotinib -0.208 | tozasertib 0.137 | [4] 0.07 | doramapimod -0.051 | ispinesib 0.137 | bafetinib 0.105 | [5] 0.249 | nilotinib 0.031 | [6] -0.099 | dasatinib 0.032 | [7] 0.015 | [8] 0.03 | [9] 0.096

APIP (UniProt Q96GX9)
inactive: [1] 0.042 | crizotinib 0.028 | [2] 0.009 | [3] -0.01 | duvelisib 0.037 | gandotinib -0.037 | tozasertib -0.061 | [4] -0.032 | doramapimod 0 | ispinesib -0.003 | bafetinib 0.052 | [5] -0.05 | nilotinib 0.051 | [6] 0.023 | dasatinib 0.019 | [7] -0.014 | [8] 0.038 | [9] -0.038 | tipifarnib 0.003 | mubritinib 0.031

ANAPC16 (UniProt Q96DE5)
inactive: [1] -0.058 | crizotinib 0.086 | [2] 0.113 | [3] 0.007 | duvelisib 0.105 | gandotinib 0.043 | tozasertib 0.036 | [4] -0.051 | doramapimod -0.057 | ispinesib 0.065 | bafetinib 0.014 | [5] 0.018 | nilotinib 0.027 | [6] -0.019 | dasatinib 0.026 | [7] -0.056 | [8] -0.04 | [9] 0.155 | tipifarnib 0.038 | mubritinib 0.001

ARF5 (UniProt P84085)
inactive: [1] 0.034 | crizotinib 0.035 | [2] 0.064 | [3] -0.071 | duvelisib 0.056 | gandotinib -0.058 | tozasertib -0.022 | [4] -0.069 | doramapimod -0.02 | ispinesib 0.023 | bafetinib -0.011 | [5] -0.03 | nilotinib 0.014 | [6] 0.01 | dasatinib 0.01 | [7] 0.029 | [8] 0.004 | [9] 0.008 | tipifarnib -0.002 | mubritinib 0.015

ANXA2 isoform 2 (UniProt P07355)
inactive: [1] -0.043 | crizotinib -0.001 | [2] 0.048 | [3] -0.092 | duvelisib -0.006 | gandotinib -0.138 | tozasertib 0.016 | [4] 0.022 | doramapimod 0.001 | ispinesib 0.125 | bafetinib 0.019 | [5] -0.004 | nilotinib 0.031 | [6] -0.003 | dasatinib -0.038 | [7] 0.03 | [8] 0.036 | [9] -0.022 | tipifarnib -0.036 | mubritinib 0.002

ARIH1 (UniProt Q9Y4X5)
inactive: [1] 0.019 | crizotinib 0.052 | [2] 0.077 | [3] -0.081 | duvelisib 0.071 | gandotinib 0.03 | tozasertib -0.013 | [4] 0.022 | doramapimod -0.045 | ispinesib 0.002 | bafetinib -0.059 | [5] 0 | nilotinib -0.006 | [6] 0.019 | dasatinib -0.01 | [7] 0 | [8] -0.005 | [9] -0.041 | tipifarnib -0.062 | mubritinib 0.013

Taken from the listing (two entries):
ARF5 (UniProt P84085)
inactive: [1] 0.034 | crizotinib 0.035 | [2] 0.064 | [3] -0.071 | duvelisib 0.056 | gandotinib -0.058 | tozasertib -0.022 | [4] -0.069 | doramapimod -0.02 | ispinesib 0.023 | bafetinib -0.011 | [5] -0.03 | nilotinib 0.014 | [6] 0.01 | dasatinib 0.01 | [7] 0.029 | [8] 0.004 | [9] 0.008 | tipifarnib -0.002 | mubritinib 0.015

ANXA2 isoform 2 (UniProt P07355)
inactive: [1] -0.043 | crizotinib -0.001 | [2] 0.048 | [3] -0.092 | duvelisib -0.006 | gandotinib -0.138 | tozasertib 0.016 | [4] 0.022 | doramapimod 0.001 | ispinesib 0.125 | bafetinib 0.019 | [5] -0.004 | nilotinib 0.031 | [6] -0.003 | dasatinib -0.038 | [7] 0.03 | [8] 0.036 | [9] -0.022 | tipifarnib -0.036 | mubritinib 0.002

Carrying on:

ANXA1 (UniProt P04083)
inactive: [1] 0.067 | crizotinib 0.004 | [2] 0.057 | [3] -0.038 | duvelisib 0.029 | gandotinib -0.084 | tozasertib 0.08 | [4] 0.072 | doramapimod -0.062 | ispinesib 0.001 | bafetinib 0 | [5] 0.013 | nilotinib -0.085 | [6] -0.08 | dasatinib -0.09 | [7] 0.037 | [8] 0.004 | [9] -0.013 | tipifarnib -0.096 | mubritinib 0.054

ARHGEF2 (UniProt Q92974)
inactive: [1] 0.099 | crizotinib -0.213 | [2] -0.423 | [3] 0.481 | duvelisib -0.12 | gandotinib 0.065 | tozasertib 0.084 | [4] 0.18 | doramapimod 0.41 | ispinesib -0.278 | bafetinib 0.175 | [5] 0.026 | nilotinib -0.194 | [6] -0.347 | dasatinib 0.041 | [7] 0.093 | [8] -0.281 | [9] -0.176 | tipifarnib 0.025 | mubritinib -0.245

ANAPC4 isoform 3 (UniProt Q9UJX5)
inactive: [1] 0.03 | crizotinib 0.014 | [2] -0.069 | [3] -0.067 | duvelisib -0.008 | gandotinib 0.039 | tozasertib 0.016 | [4] 0.015 | doramapimod 0.012 | ispinesib 0.016 | bafetinib 0.043 | [5] -0.003 | nilotinib -0.013 | [6] 0.004 | dasatinib -0.005 | [7] -0.039 | [8] -0.057 | [9] -0.1 | tipifarnib 0.012 | mubritinib 0.016

AP1G1 isoform 2 (UniProt O43747)
inactive: [1] -0.004 | crizotinib 0.012 | [2] 0.039 | [3] 0.026 | duvelisib 0.03 | gandotinib -0.013 | tozasertib 0.119 | [4] 0.101 | doramapimod -0.003 | ispinesib 0.014 | bafetinib 0.001 | [5] 0.047 | nilotinib -0.034 | [6] -0.023 | dasatinib -0.102 | [7] 0.024 | [8] 0.004 | [9] -0.021 | tipifarnib -0.082 | mubritinib 0.044

APMAP (UniProt Q9HDC9)
inactive: [1] 0.026 | crizotinib 0.052 | [2] 0.019 | [3] -0.041 | duvelisib 0.019 | gandotinib -0.032 | tozasertib -0.018 | [4] -0.012 | doramapimod 0.013 | ispinesib 0 | bafetinib -0.043 | [5] -0.052 | nilotinib -0.038 | [6] 0.015 | dasatinib 0.043 | [7] -0.006 | [8] 0.036 | [9] 0.007 | tipifarnib 0.006 | mubritinib 0.042

ANKRD54 (UniProt Q6NXT1)
inactive: [1] -0.001 | crizotinib 0.002 | [2] 0.08 | [3] -0.113 | duvelisib -0.127 | gandotinib -0.052 | tozasertib 0.017 | [4] 0.087 | doramapimod 0.024 | ispinesib 0.014 | bafetinib -0.086 | [5] 0.026 | nilotinib 0.043 | [6] 0.093 | dasatinib -0.206 | [7] -0.098 | [8] 0.004 | [9] -0.003 | tipifarnib -0.028 | mubritinib 0.051

ARHGEF1 isoform 3 (UniProt Q92888)
inactive: [1] 0.041 | crizotinib -0.111 | [2] -0.072 | [3] 0.225 | duvelisib -0.094 | gandotinib 0.041 | tozasertib 0.095 | [4] 0.063 | doramapimod 0.15 | ispinesib -0.263 | bafetinib 0.098 | [5] 0.079 | nilotinib -0.037 | [6] -0.013 | dasatinib -0.065 | [7] 0.002 | [8] -0.1 | [9] -0.113 | tipifarnib -0.085 | mubritinib 0.02

Source: the supplement of paper PMC10849652
